No constants are given. Whether binding was seen depends on the method and setting. Some binding calls cover weakened binding; strength is not graded here.
Target: Brahma related gene 1 (Brg1), mouse (mouse (endogenous in liver)) (UniProt Q3TKT4)
Assay: Re-ChIP; sequential chromatin immunoprecipitation with two antibodies from formaldehyde cross-linked, sonicated liver chromatin of mice fed an HFHC or MCD diet; qPCR of cholesterogenic gene promoters

The chains behind the UniProt entries cited, without tags or fusion partners.
UniProt Q3TKT4: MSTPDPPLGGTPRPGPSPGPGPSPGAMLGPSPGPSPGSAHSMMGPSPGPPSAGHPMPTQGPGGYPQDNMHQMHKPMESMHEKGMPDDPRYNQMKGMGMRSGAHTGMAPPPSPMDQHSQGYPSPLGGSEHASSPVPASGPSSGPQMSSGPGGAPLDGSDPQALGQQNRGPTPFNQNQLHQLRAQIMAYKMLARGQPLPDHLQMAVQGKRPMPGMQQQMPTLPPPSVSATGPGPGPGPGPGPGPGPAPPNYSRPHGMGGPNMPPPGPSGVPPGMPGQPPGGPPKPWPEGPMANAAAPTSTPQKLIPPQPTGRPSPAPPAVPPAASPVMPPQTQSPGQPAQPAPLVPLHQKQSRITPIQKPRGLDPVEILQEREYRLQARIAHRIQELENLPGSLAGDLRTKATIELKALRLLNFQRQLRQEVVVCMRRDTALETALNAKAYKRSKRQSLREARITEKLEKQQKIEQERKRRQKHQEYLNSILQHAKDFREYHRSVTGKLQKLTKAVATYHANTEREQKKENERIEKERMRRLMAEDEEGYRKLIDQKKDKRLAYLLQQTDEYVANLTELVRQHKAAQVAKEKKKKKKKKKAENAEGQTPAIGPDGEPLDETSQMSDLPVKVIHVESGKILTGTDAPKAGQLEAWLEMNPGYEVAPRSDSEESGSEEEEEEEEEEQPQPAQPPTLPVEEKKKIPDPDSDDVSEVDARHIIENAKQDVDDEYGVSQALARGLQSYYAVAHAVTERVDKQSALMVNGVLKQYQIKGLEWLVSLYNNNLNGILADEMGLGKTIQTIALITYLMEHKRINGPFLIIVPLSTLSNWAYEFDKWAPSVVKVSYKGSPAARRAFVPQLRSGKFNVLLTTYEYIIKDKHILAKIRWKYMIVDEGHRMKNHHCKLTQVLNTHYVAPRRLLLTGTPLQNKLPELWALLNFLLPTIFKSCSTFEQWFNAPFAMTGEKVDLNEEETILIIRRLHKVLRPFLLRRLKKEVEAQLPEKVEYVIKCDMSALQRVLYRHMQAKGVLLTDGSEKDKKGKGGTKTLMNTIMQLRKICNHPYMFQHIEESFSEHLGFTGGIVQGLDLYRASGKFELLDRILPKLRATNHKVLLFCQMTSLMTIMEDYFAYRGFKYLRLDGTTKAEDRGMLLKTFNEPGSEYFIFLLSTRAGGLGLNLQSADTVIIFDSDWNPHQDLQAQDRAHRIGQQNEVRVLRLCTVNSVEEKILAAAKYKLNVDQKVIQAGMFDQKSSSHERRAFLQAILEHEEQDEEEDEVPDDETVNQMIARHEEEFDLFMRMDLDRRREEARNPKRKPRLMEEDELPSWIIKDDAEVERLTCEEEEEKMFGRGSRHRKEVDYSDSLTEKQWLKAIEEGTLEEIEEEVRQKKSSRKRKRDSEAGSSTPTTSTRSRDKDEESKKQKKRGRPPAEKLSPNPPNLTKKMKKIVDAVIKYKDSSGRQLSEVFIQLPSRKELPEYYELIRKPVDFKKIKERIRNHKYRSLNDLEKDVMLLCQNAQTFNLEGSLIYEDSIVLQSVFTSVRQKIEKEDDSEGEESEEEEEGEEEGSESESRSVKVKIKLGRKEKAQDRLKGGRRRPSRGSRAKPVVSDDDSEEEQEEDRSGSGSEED

B1: KDM3A, mouse (protein, UniProt Q6PCM1 1-1323)
chain: MVLTLGESWPVLVGKRFLSLSAAEGNEGGQDNWDLERVAEWPWLSGTIRAVSHTDVTKKDLKVCVEFDGESWRKRRWIDVYSLQRKAFLVEHNLVLAERKSPEVPEQVIQWPAIMYKSLLDKAGLGAITSVRFLGDQQSVFVSKDLLKPIQDVNSLRLSLTDNQTVSKEFQALIVKHLDESHLLQGDKNLVGSEVKIYSLDPSTQWFSATVVHGNPSSKTLQVNCEEIPALKIVDPALIHVEVVHDNFVTCGNSTRTGAVKRKSSENNGSSVSKQAKSCSEASPSMCPVQSVPTTVFKEILLGCTAATPSSKDPRQQNTPQAANSPPNIGAKLPQGCHKQNLPEELSSCLNTKPEVPRTKPDVCKEGLLSSKSSQVGAGDLKILSEPKGSCIQPKTNTDQESRLESAPQPVTGLPKECLPAKTSSKAELDIATTPELQKHLEHAASTSDDLSDKPEVKAGVTSLNSCAEKKVEPSHLGSQSQNLKETSVKVDNESCCTRSSNKTQTPPARKSVLTDPDKVRKLQQSGEAFVQDDSCVNIVAQLPKCRECRLDSLRKDKDQQKDSPVFCRFFHFRRLQFNKHGVLRVEGFLTPNKYDSEAIGLWLPLTKNVVGTDLDTAKYILANIGDHFCQMVISEKEAMSTIEPHRQVAWKRAVKGVREMCDVCDTTIFNLHWVCPRCGFGVCVDCYRMKRKNCQQGAAYKTFSWIRCVKSQIHEPENLMPTQIIPGKALYDVGDIVHSVRAKWGIKANCPCSNRQFKLFSKPALKEDLKQTSLSGEKPTLGTMVQQSSPVLEPVAVCGEAASKPASSVKPTCPTSTSPLNWLADLTSGNVNKENKEKQLTMPILKNEIKCLPPLPPLNKPSTVLHTFNSTILTPVSNNNSGFLRNLLNSSTAKTENGLKNTPKILDDIFASLVQNKTSSDSSKRPQGLTIKPSILGFDTPHYWLCDNRLLCLQDPNNKSNWNVFRECWKQGQPVMVSGVHHKLNTELWKPESFRKEFGEQEVDLVNCRTNEIITGATVGDFWDGFEDVPNRLKNDKEKEPMVLKLKDWPPGEDFRDMMPSRFDDLMANIPLPEYTRRDGKLNLASRLPNYFVRPDLGPKMYNAYGLITPEDRKYGTTNLHLDVSDAANVMVYVGIPKGQCEQEEEVLRTIQDGDSDELTIKRFIEGKEKPGALWHIYAAKDTEKIREFLKKVSEEQGQDNPADHDPIHDQSWYLDRSLRKRLYQEYGVQGWAIVQFLGDVVFIPAGAPHQVHNLYSCIKVAEDFVSPEHVKHCFWLTQEFRYLSQTHTNHEDKLQVKNVIYHAVKDAVAMLKASESSLGKP
**Q.** Which binding does the source give for B1 here?
**A.** binds

Reference: PMC7243037
